Test results from article PMC7075897.
These are yes or no findings as the source states them, for the method shown. Binding seen in cells or lysates may run through a third protein. These calls come from enrichment with a bait or labelling near it, and not all partners need be listed. Sequences can lack the tags named with a protein. Values belong to the binder of their own block, whether it stands above or below them.

Columns and labels:
[1] = target: T1, Usp fused to BioID2 through a 25 nm GS linker, marked with 3xFLAG (Drosophila melanogaster) (UniProt P20153); experiment: proximity labelling; BioID2 fused to EcR or Usp, stably expressed in S2 cells; biotin 50 nM, 20E or DMSO for 14 h; nuclear extract, Streptavidin-Agarose precipitation, LC-MS/MS
T1 sequence: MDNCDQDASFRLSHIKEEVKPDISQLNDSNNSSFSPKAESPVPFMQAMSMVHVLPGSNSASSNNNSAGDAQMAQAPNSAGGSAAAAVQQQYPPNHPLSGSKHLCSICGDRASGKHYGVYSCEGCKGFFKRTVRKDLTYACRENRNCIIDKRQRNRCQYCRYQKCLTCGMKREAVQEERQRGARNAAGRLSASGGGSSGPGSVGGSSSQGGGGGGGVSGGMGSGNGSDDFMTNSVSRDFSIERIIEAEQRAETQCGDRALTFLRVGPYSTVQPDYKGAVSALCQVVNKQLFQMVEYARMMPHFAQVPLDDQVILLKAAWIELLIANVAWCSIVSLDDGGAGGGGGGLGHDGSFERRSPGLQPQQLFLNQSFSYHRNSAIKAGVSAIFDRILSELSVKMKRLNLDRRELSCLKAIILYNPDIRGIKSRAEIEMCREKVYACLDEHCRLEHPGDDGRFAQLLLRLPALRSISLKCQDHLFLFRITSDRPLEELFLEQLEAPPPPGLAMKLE

[2] = target: T2, EcR (isoform A) fused to BioID2 through a 25 nm GS linker, marked with 3xFLAG (Drosophila melanogaster) (UniProt P34021); experiment: as above
T2 sequence: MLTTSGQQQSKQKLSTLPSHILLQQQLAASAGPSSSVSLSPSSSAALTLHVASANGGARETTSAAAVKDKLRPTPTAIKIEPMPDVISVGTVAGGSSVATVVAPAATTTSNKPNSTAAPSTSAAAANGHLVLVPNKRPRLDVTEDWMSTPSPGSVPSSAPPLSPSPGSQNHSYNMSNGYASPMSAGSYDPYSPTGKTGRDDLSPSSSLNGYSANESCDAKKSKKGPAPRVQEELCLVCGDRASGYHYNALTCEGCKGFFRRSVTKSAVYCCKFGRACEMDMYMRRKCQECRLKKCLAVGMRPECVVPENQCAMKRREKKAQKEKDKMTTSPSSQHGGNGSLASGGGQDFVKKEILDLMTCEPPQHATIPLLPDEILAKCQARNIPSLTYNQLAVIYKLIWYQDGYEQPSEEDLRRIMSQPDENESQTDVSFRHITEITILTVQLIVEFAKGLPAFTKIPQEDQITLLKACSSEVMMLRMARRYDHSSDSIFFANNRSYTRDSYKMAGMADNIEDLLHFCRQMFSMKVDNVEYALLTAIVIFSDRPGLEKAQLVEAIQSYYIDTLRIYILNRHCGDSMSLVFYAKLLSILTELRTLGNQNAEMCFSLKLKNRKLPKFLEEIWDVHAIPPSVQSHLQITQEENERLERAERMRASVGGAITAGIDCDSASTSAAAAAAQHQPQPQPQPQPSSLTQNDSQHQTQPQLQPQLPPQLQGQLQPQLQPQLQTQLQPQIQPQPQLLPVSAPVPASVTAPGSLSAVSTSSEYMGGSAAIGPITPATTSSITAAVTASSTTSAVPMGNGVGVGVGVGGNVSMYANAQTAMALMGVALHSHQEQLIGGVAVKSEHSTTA

[3] = target: T3, EcR (isoform A) fused to APEX2 through a 25 nm GS linker, marked with 3xFLAG (Drosophila melanogaster) (UniProt P34021); experiment: proximity labelling; APEX2 fused to EcR or Usp, stably expressed in S2 cells; 20E or DMSO 1 h, biotin-phenol 30 min, 1 mM H2O2 5 min; nuclear extract, Streptavidin-Agarose precipitation, LC-MS/MS
T3 sequence: T2 sequence

[4] = target: T4, Usp fused to APEX2 through a 25 nm GS linker, marked with 3xFLAG (Drosophila melanogaster) (UniProt P20153); experiment: as above
T4 sequence: T1 sequence

binding [1]: binds | binding [2]: binds
B3: Dp1 (protein, UniProt Q7KN75 1-1301)
chain: MQAAAVMEETNNATTIEQQPIALINGQEQVANEQQPSSPTSVATPTSTTSGGTGNATPAFSYDDLFPALPANTSAQSQSGASGSTLARVTSSQKTHIVHVPCKERKSTESEKFGEGESKRICQQITKETGAQIEIVSGKNQSLTFLIKGKQSELLDARRKILMGFSTQASRQVTVPREHFRVILGKGGQRLREIERVTATRINIPSQSDESEFITIAGTKEGIAQAEQEIRQLSAEQYKKSSDRITVPKVYHPFIVGPYSENLNKLQEETGARINVPPQQVQKDEIVISGEKDAVAAAKAKVEAIYKDMEKKCSTVSVEVAKPKHRYVIGPKGSTIAEILQLTGVSVEMPPNDSPSETITLRGPQVALGNALTVVYQKSNSVKSVEINAAHWIHKYVIGRKGANMKQLEEDCPNVNVNCLEDKIKLEGDPENVDRAVAYLSEIIKNYEENFTFEVMTVNPSYYKHIIGKAGANVNRLKDELKVNINIEEREGQNNIRIEGPKEGVRQAQLELQEKIDKLENEKSKDVIIDRRLHRSIIGAKGEKIREVKDRYRQVTITIPTPQENTDIVKLRGPKEDVDKCHKDLLKLVKEIQESSHIIEVPIFKQFHKFVIGKGGANIKKIRDETQTKIDLPAEGDTNEVIVITGKKENVLEAKERIQKIQNELSDIVTEEVQIPPKYYNSIIGTGGKLISSIMEECGGVSIKFPNSDSKSDKVTIRGPKDDVEKAKVQLLELANERQLASFTAEVRAKQQHHKFLIGKNGASIRKIRDATGARIIFPSNEDTDKEVITIIGKEESVKKAREQLEAIIKECDEVTEGEVSVDPKHHKHFVAKRGFILHRISEECGGVMISFPRVGINSDKVTIKGAKDCIEAARQRIEEIVADLEAQTTIEVVIPQRHHRTIMGARGFKVQQVTFEFDVQIKFPDRDATEPVEGLTNGGSGENGGENEGQEGEQEVEKEAEQEPVRQCDVIRITGRIEKCEAAKQALLDLIPIEEELSVPFDLHRTIIGPRGANVRQFMSKHDVHVELPPSELKSDVIKVCGTPARVAEAREALVKMIEDYEADRADRELRSFVLQVDVDTEFHSKLIGRHGAVINKLRADHDVIISLPKRDEPNDRIISITGYQANAEAARDAILEIVGDPETLHREVIEIDKRIHPHLIGQRRRTIRKIIEDNKVNIKFSADDDNPNSIFISGKIEDVENVKELLFGMAEDYERDYLDNVAIAPPTIGAFLTGQGSGSDAAGASENGFVIKDAPWEKQKQAKNLTAPNTQSQEDFPHFAAGGAPVASTPITSVWGPKN

binding [1]: binds | binding [2]: binds | binding [3]: binds | binding [4]: binds
B4: Hcf (protein, UniProt Q9V4C8 1-1500)
chain: MEGSDFVDPAFSSGERISASDLNSEHIIQAENHSFANRISMDMDVPDGHQLDSNLTGFRWKRVLNPTGPQPRPRHGHRAINIKELMVVFGGGNEGIVDELHVYNTVTNQWYVPVLKGDVPNGCAAYGFVVEGTRMFVFGGMIEYGKYSNELYELQATKWEWRKMYPESPDSGLSPCPRLGHSFTMVGEKIFLFGGLANESDDPKNNIPKYLNDLYILDTRGVHSHNGKWIVPKTYGDSPPPRESHTGISFATKSNGNLNLLIYGGMSGCRLGDLWLLETDSMTWSKPKTSGEAPLPRSLHSSTMIGNKMYVFGGWVPLVINDSKSTTEREWKCTNTLAVLDLETMTWENVTLDTVEENVPRARAGHCAVGIQSRLYVWSGRDGYRKAWNNQVCCKDLWYLEVSKPLYAVKVALVRASTHALELSWTATTFAAAYVLQIQKIEQPLNTSSKLLSNNIVQQGTPTSAETSGINISANRSGSALGLGVEATSTVLKLEKESLQLSGCQPETNVQPSVNDLLQSMSQPSSPASRADKDPLSSGGGTTFNLSTSVASVHPQISVISSTAAVTGNDTASPSGAINSILQKFRPVVTAVRTSTTTAVSIATSTSDPLSVRVPSTMSANVVLSSSSSTLRIVPSVTASHSLRIASSQASGNNCRSSSAINILKTALPNVAVQSQPTSSTTTSIGGKQYFIQKPLTLAPNVQLQFVKTSGGMTVQTLPKVNFTASKGTPPHGISIANPHLASGITQIQGSTVPGSQIQKPIVSGNVLKLVSPHTMAGGKLIMKNSNILQMGKVTPNVMGGKPAFVITNKQGTPLGNQQIIIVTTGGNVRSVPTSTVMTSAGGSASGTNIVSIVNSTSTTPSPLQALSGQKTLISNQSGVKMLRNISSVQASSSMAFGQKQSGTPIHQKTALYIGGKAVTVMSTNTSMAASGNKVMVLPGTSSNNSPATTTALSARKSFVFNAGGSPRTVTLATKSINAKSIPQSQPVTETNNHSVATIKDTDPMDDIIEQLDGAGDLLKLSESEGQHGSEENENNGENATSSSASALFTGGDTAGPSRAQNPIVMEHPVDIIEDVSGVSSTTDVNETAIVSGDTIESLKMSEKENDDVKSMGEKSILSDDCHQPTTSETEAATILTTIKSAEALVLETAEIRKDHTGCTIGSLKENQDENKKFKQRQESSPSQNIHQFQNVDGSQLEALASAALLQAATSDTTALALKELIERPESETNTRSSNIAEIQQNNVQSTLAVVVPNTSQNENQKWHTVGVFKDLSHTVTSYIDSNCISDSFFDGIDVDNLPDFSKFPRTNLEPGTAYRFRLSAINSCGRGEWGEISSFKTCLPGFPGAPSAIKISKDVKEGAHLTWEPPPAQKTKEIIEYSVYLAVKPTAKDKALSTPQLAFVRVYVGAANQCTVPNASLSNAHVDCSNKPAIIFRIAARNQKGYGPATQVRWLQDPAAAKQHTPTVTPNLKRGPEKSTIGSSNIANTFCSPHKRGRNGLHD

Second part, the binder before the results:

B1: cg10077 (protein, UniProt Q8MZI3 1-818)
chain: MNMYNGQMNAFGGGGGGGAGGLAGGMVPNRMGGGAPGGGPGGAGMFQRNRSAPYPGFNGHGPANGGQRRMNGGGPSMGPGGPRNQDGFGGQNGGQRSSNHGAHLPKIVWSEVNLTPFRKNFYKPCDSVLARTVGETETFLTSNEITIKGDQVPTPSIEFEEGGFPDYVMNEIRKQGFAKPTAIQAQGWPIAMSGRDLVGVAQTGSGKTLAYVLPAVVHINNQPRLERGDGPIALVLAPTRELAQQIQQVAIEFGSNTHVRNTCIFGGAPKGQQARDLERGVEIVIATPGRLIDFLERGTTSLKRCTYLVLDEADRMLDMGFEPQIRKIMQQIRPDRQVLMWSATWPKEVRQLAEEFLNNYIQVNIGSLSLSANHNILQIVDVCDENEKLMKLIKLLTDISAENETKTIIFVETKKRVDEITRNISRQGWRACAIHGDKSQQERDFVLSSFRNGRHSILVATDVAARGLDVDDVKFVINYDYPSNSEDYVHRIGRTGRSNNTGTAYTLFTHSNANKANDLIQVLREANQTINPKLMNMAMNGGYNKRGGGMGGGYRGGNGYQGRNPQMGGGYNGGNNYRNNNGPGATMNRNSFNGGSAGGPPRFDQKPRTSPPNQGGQGGYRGQGGGGYQGQQQQQQQQNGGVPFSRFNPNAACFEPNKPQNGPGSGPPQAQHQQQQQAQAAQQQHLLPDASVQAAMTAANYGVDQKRSRFSPYNMNFANMPPPAMNQQQAAAAQQQQQQQLQTPQQQQQQQQMQQPQAYGQYSSMSSSMATVSLNGGAAAVASSYRAPYAVPTQAAPYMMANGGDIFAYPPPPLPVQN
binding [1]: binds | binding [2]: binds

B2: Nup50 (protein, UniProt Q7K0D8 1-564)
chain: MAGKRQATSNLNHENWDLEEEPEERGTFRTATEEELKTRVIKKARRKIAGGSSAAEEDGAEEKTAEPKSVFSGFSGFGKPAASPAAGSPFSFLANVTAPATTSSSEPKKSAFSFGFSSSSSSADRPVSTSICGTASTSSTAPSPLPAKESTSTVDGAKPTTSIFGNISAAKKESSEAKTSSSSTSLTSTMETSEYRESVADLNRSVIKFLQDQMGKSPYCILTPVFKNYDEHLKDLQDEESARTNSTKSKTAQARSQEPVAKVSRASSPPKAATTFTFGKPSAPIGASVSPLAKKPNCTITSGGTTTTTATPLVSFGSTASFTAPVPSSSSIFSLTAKPTGEAKSDDTPKSSIFSFGAKDTTTKKDEPNFSAPKTNGFSFGLKSNNDDKPSTSLFAGFGKAPGGAGDGAKGFSFTNSATPFSLGNIHPPAAAAAPAEEEKEEDTPPKVEFKQVVEDDAIYSKRCKVFIKKDKDFGDRGVGTLYLKPVKDSEKIQLLVRADTNLGNILVNLILSKGIPCQRMGKNNVLMVCVPTPEDSKATSLLLRVKTGDEADDLLEKIKEHIK
binding [1]: binds | binding [2]: binds
